Values from PubChem BioAssay AID1053209 (Peter MacCallum Cancer Centre, 2014)

Aim: 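Knock-downs that sensitise mouse osteosarcoma cells to doxorubicin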 (follow-up of hits)
Cell system: mouse primary osteosarcoma cells
Reagent: single siRNA against mouse genes, 25 nM (text also states 40 nM)
Time to read-out: about 120 h (48 h before drug, then 72 h with drug)
Conditions: doxorubicin 100 nM (about IC30-40), added 48 h after transfection, for 72 h
Detection: 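Viability measured by ATP luminescence with and without doxorubicin, each replicate scaled to non-targeting siRNA NT1, averaged over two replicates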
Scale: viability with doxorubicin, vs NT1: higher = more viable cells under doxorubicin; viability ratio, doxorubicin over no drug: higher = less sensitisation to doxorubicin; viability without drug, vs NT1: higher = more viable cells without drug
Call rule: 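Active when doxorubicin viability is at most 0.7 of NT1 and drug-free viability lies between 0.7 and 1.1, class LC dox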
Shown is an unselected part of about 1,580 reagents tested. In the full data, 207 (13%) got an active call. 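Rows are single siRNAs; four siRNAs per gene were tested, a gene counting as confirmed only when at least two agree.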 The numbers tell different reagents against one gene apart.

| gene knocked down | reagent | combined effect class | viability with doxorubicin, vs NT1 | viability ratio, doxorubicin over no drug | viability without drug, vs NT1 | outcome |
| --- | --- | --- | --- | --- | --- | --- |
| Reg2 | 1 | low viability with and without drug | 0.38 | 1.06 | 0.36 | inactive |
| Reg2 | 2 | normal viability with and without drug | 0.95 | 1.04 | 0.91 | inactive |
| Reg2 | 3 | normal viability with and without drug | 1.04 | 1.13 | 0.92 | inactive |
| Reg2 | 4 | high viability only with doxorubicin | 1.12 | 1.06 | 1.06 | inactive |
| Klhdc4 | 1 | normal viability with and without drug | 0.72 | 0.75 | 0.96 | inactive |
| Klhdc4 | 2 | normal viability with and without drug | 0.86 | 0.93 | 0.92 | inactive |
| Klhdc4 | 3 | normal viability with and without drug | 0.9 | 0.97 | 0.93 | inactive |
| Klhdc4 | 4 | high viability only with doxorubicin | 1.13 | 1.13 | 1 | inactive |
| Crnkl1 | 1 | low viability with and without drug | 0.6 | 1 | 0.6 | inactive |
| Crnkl1 | 2 | normal viability with and without drug | 0.94 | 1.08 | 0.87 | inactive |
| Crnkl1 | 3 | low viability with and without drug | 0.31 | 0.61 | 0.51 | inactive |
| Crnkl1 | 4 | low viability with and without drug | 0.2 | 0.51 | 0.39 | inactive |
| Rpl37a | 1 | low viability with and without drug | 0.18 | 0.43 | 0.42 | inactive |
| Rpl37a | 2 | low viability with and without drug | 0.32 | 0.82 | 0.39 | inactive |
| Rpl37a | 3 | low viability with and without drug | 0.34 | 0.59 | 0.58 | inactive |
| Rpl37a | 4 | low viability with and without drug | 0.31 | 0.67 | 0.46 | inactive |
| Med15 | 1 | normal viability with and without drug | 0.9 | 0.87 | 1.04 | inactive |
| Med15 | 2 | normal viability with and without drug | 0.82 | 0.8 | 1.02 | inactive |
| Med15 | 3 | normal viability with and without drug | 1.04 | 0.98 | 1.06 | inactive |
| Med15 | 4 | normal viability with and without drug | 0.82 | 0.9 | 0.91 | inactive |
| Wee1 | 1 | low viability only with doxorubicin; normal without drug | 0.7 | 0.71 | 0.98 | active |
| Wee1 | 2 | high viability with and without drug | 1.13 | 1.01 | 1.12 | inactive |
| Wee1 | 3 | normal viability with and without drug | 0.82 | 0.98 | 0.84 | inactive |
| Wee1 | 4 | low viability with and without drug | 0.19 | 0.41 | 0.46 | inactive |
| E2f4 | 1 | normal viability with and without drug | 0.92 | 1.02 | 0.9 | inactive |
| E2f4 | 2 | low viability only with doxorubicin; normal without drug | 0.66 | 0.73 | 0.91 | active |
| E2f4 | 3 | normal viability with and without drug | 1.04 | 1.05 | 0.99 | inactive |
| E2f4 | 4 | normal viability with and without drug | 0.92 | 0.88 | 1.04 | inactive |
| Rpl35a | 1 | low viability with and without drug | 0.18 | 0.47 | 0.38 | inactive |
| Rpl35a | 2 | low viability with and without drug | 0.29 | 0.63 | 0.46 | inactive |
| Rpl35a | 3 | low viability with and without drug | 0.43 | 0.78 | 0.55 | inactive |
| Rpl35a | 4 | low viability with and without drug | 0.19 | 1.06 | 0.18 | inactive |
| Eif3k | 1 | high viability only with doxorubicin | 1.1 | 1.05 | 1.05 | inactive |
| Eif3k | 2 | low viability only with doxorubicin; normal without drug | 0.65 | 0.83 | 0.78 | active |
| Eif3k | 3 | low viability only with doxorubicin; normal without drug | 0.37 | 0.46 | 0.8 | active |
| Eif3k | 4 | normal viability with and without drug | 1 | 1.01 | 0.99 | inactive |
| Ikbke | 1 | normal viability with and without drug | 0.84 | 0.77 | 1.09 | inactive |
| Ikbke | 2 | normal viability with and without drug | 0.86 | 0.91 | 0.94 | inactive |
| Ikbke | 3 | normal viability with and without drug | 0.86 | 0.88 | 0.98 | inactive |
| Ikbke | 4 | normal viability with and without drug | 1.09 | 1.07 | 1.02 | inactive |

Hits, among the entries above:
| gene knocked down | reagent | combined effect class | viability with doxorubicin, vs NT1 | viability ratio, doxorubicin over no drug | viability without drug, vs NT1 | outcome |
| --- | --- | --- | --- | --- | --- | --- |
| Wee1 | 1 | low viability only with doxorubicin; normal without drug | 0.7 | 0.71 | 0.98 | active |
| E2f4 | 2 | low viability only with doxorubicin; normal without drug | 0.66 | 0.73 | 0.91 | active |
| Eif3k | 2 | low viability only with doxorubicin; normal without drug | 0.65 | 0.83 | 0.78 | active |
| Eif3k | 3 | low viability only with doxorubicin; normal without drug | 0.37 | 0.46 | 0.8 | active |
